Results on twelve molecules are retold here after article doi:10.1101/2021.05.25.445618.

Results are given in words; binding and its absence hold for the method and conditions named. Binding seen in cells or lysates may run through a third protein. A yes stands for co-enrichment or nearness to the bait. Other partners may have been found. For part of these data: Sequences can lack the tags named with a protein.

The labels stand for the following.
B1: Lmo2168 putative lactoylglutathione lyase (protein, UniProt Q8Y5A1 1-129)
chain: MTAKMLHTCIRVKNLTESITFYEKALGLKEVRRKDFPDFEFTLVYMAFEEGGFELELTYNYDQKEAYDLGNGYGHLAVGVLDVRALLKEHQEAGFTVTDLKGLPGEDPFYYFLTDPDGYKTEIIQDGAL
B2: catalase (enzyme, UniProt Q8Y3P9 1-488)
chain: MTDRKNLTTNQGVPVGDNQNSMTAGRKGPTLIEDYVLIEKLAHFDRERVPERVVHARGAGAHGKFVTKKSMKKYTMAKFLQEEGTETEVFARFSTVIHGQHSPETLRDPRGFSVKFYTEEGNYDFVGNNLPVFFIRDAIKFPDVIHSLKPDPRTNIQDGNRYWDFFSLTPEATTMIMYLFSDEGTPASYREVRGSSVHAFKWINEEGKTVYVKLRWVPKAGIVNLSTEQASQIQAKEFNHASRDLYEAIENGDYPEWDLYVQVLDPKDLDSFDFNPLDATKDWFEDVFPYEHVGTMTLDRNPDNIFAETESVGFNPGVLVRGMLPSEDRLLQGRLFSYSDTQRHRVGPNYLQLPINSPKAPVANNQRDGHMPFKQQTSSINYEPNSYDTEPKENPAFIEPEQEIRGDISGRLIAEKPNNFGHAKEVWDRYSNAERAALVKNIVDDWSQVREDIKIRNLRNFYQVDPEFASRVAAGTGINLEEHVTDLK
B3: Lmo2182 ferrichrome ABC transporter (protein, UniProt Q8Y587 1-259)
chain: MEVRDVNFSYNGTDAILKNVSFTIQKNKINTIVGPNGSGKSTLLEILARLLSPNSGDVLLEGKSIFEWKAKEFAQNVAIVHQSNVLPNELMVKELLYFGRLPYKNWRMTRTKEDDLAVERALMQTELTEKAEKFVDSLSGGERQRVFIATALVQDTPILLLDEPTTFLDMYFQLEILELVKRLNQEENLTIVMILHDLNQALMYSDHLIVMKNGEVVAKGEPEELLTTDLIAETYGVVADVLNDANNGKYIVPQRRKEF
B4: HrcA (protein, UniProt B8DE36 1-345)
chain: MLTERQLLIFRAIIDHFTWTIQPVGSKNLLKEKGLPYSSATIRNEMGVLEEYGFIEKTHSSSGRVPSEKGYRFYVDYLLQPKKLDKSDRQMIRSFFSENYYEMEGLIQNSALMLSDLTNYTSILLGPEATKNHLSGFRFVPINNFQAMLILITDQGHVDNHLVTIPEGTTLSDIERMVNILNERLVGLSLDDLKVQIPMEVKELLGKHVRNYESFMHVFSDSFAQASQQKVYFGGKTNILNQPEFHDINKVREMLHLMEEEQDVYELFRDIPDGLQVKIGRENNNSLMEDCSIITATYNIAGERVGGIVLLGPTRMEYSRMMGLVDVMSRDLTDVLTKLYRDNQN
B5: LexA, the repressor of the SOS regulon (protein, UniProt Q8Y7H7 1-204)
chain: MKISKRQQDIYEFIKSEVKEKGYPPSVREIGEAVGLASSSTVHGHLARLEGKGLIRRDPTKPRAIEILSLEDEAETPNVVNIPIIGKVTAGMPITAIENIDEYFPLPEYMAAGETNVFMLEIDGESMINAGILDGDKVIVRQESSAINGEIVVAMTDENEATCKRFYKEANHFRLQPENDALEPILLNNVTILGKVIGLYRDIR
B6: Lmo1515 CymR analog (protein, UniProt Q8Y711 1-140)
chain: MKITTKGRYGLTITLELAKRIGDGPISLRSIAQDKNLSEHYLEQLIGPLRNAGIVKSIRGAHGGYVLNGDPEKITAGDIIRTLEGPIVLVESMEDEEAAQRELWTRMRNAVRDVLDQTTLADLLKHSTDSELTDGYMFYI
B7: Lmo2712 gluconate kinase (enzyme, UniProt Q8Y3W7 1-504)
chain: MTSKPYIMGVDIGTSSTKAVLFNQRGEVIFRQATHYELITDETGKAEESPTEIFDAVLTSIQAVMKNINTEELAGISFSSAMHSLIMVGSNGELLTECITWADGRSSETLEKVKRDNYLFQLYEATGTPIHPMSPFAKICWLKEEKPTLFKRTEKFVDIKSYILYRLFGVWVMDESLASGTGLYNIMEHDWEFEAMEIVKLTPDFLPKVVPETYQLAGVKKEYAELMGIPENLPFIIGGSDGALANIGIQATGQNDVTITVGTSGAVRKLTDQFQIDSRGRTFCYGAGDGYFIAGGAVNNGGKVVEWGLQQFGSEAEISRRDFASFIAKIEEVPPGAAGLLFQPYLLGERAPFWTNDIRGGFVGLTINHTKAHFIRAILEGVAFNLAEVYEAVSAPDDIIYVTGGISAHDAWCKLLADILNREIRVPHTIEGSSLGAAIIGMRSLGILKDLNLKHTLPIKAVYHPSENVLKYAELRLIFKQVTTQLMSSYSQLNSWQKKFDINS
B8: Lmo1813 L-serine deaminase (enzyme, UniProt Q8Y684 1-220)
chain: MKFNSVFDIIGPVMIGPSSSHTAGASRIGAIARAVFNEQPSQVDIHLYGSFAKTYKGHGTDVALIGGLLGFEPDDPRMKESPKLAEEWGMRIQFIEEVEEPPHPNTVKLVLKHGMQQMTLIGASIGGGKVEIIRLNEFELEFTGTAPAILILHQDKFGAIAAVSSVIADHKINIGQMKVSRKVKGDEALMVIEVDQQVEQALISKIAELSGIYQVASVMI
B9: glycerol-3-phosphate dehydrogenase GlpD (enzyme, UniProt Q8Y7I4 1-558)
chain: MVQLFSAFDRETIERNLQEEKFDLVIVGGGITGAGIALDATSRGMSVALVEMGDFASGTSSRSTKLVHGGLRYLQQFEIKEVADLGKERAIVYENGPHVTTPEWMMLPFHKGGNMGKTTASFGIRLYDYLAGVKKNERRKILSAKETLAKNPFVKKDGLKGSGYYVEYRTDDARLTIEVMKKAVELGANAINYTKAEHFLYDDNKQVVGVTVTDRLSGKAYDIKGHRVINAAGPWVDKVRKLDYATNNKHLRLTKGIHLVIDKQKFPMEQAVYFDTPDGRMVFAIPRDKKVYVGTTDTVYDEAVINPKALESDHNYVIKAINYMFPDVHITEKDIESSWAGVRPLIYEEGKDPSEISRKDEVWFSESGLITMAGGKLTGYRKMAEKLLDDVSKTLAKETGKKYKTVQTKHLPISGGDIGGSEQLEAFLSKKAKEGNNRFGWTLEEGREMAKRFGSNIDQLFTYAQEHKEQNETTLPNSLYAELRYSIQHEAVTTPIDFLLRRTGYLLFDMPYLLEWKDAVVDEMAKQFHWSDDVKQTYIEELNIQINDAREPADWHDR
B10: Lmo1387 pyrrolysin-5-carboxylate reductase (enzyme, UniProt Q8Y7A2 1-279)
chain: MAKIGFIGFGSMASLIATKIIETEVATPEEIILYSNSKNEHFNQFYTKYPTAELADNEAEIFTKADHSFVCKLPLAVLPLMKDCAAVLTPDRHVVSIAAGVSTSDIIEITPGLQVSKLIPSLTTAVNVGTTLIAHAETVNQTNTSWLETTFEHFGHVMTIREENMDIASDLTSSSPGIIAAIFEQFVEAALRRSSLSDAEVFQMINFALAGTSKLLVEEDYTFSGLIQRVATKDGTTAEGVELSKAQLPNFFDELLDRTQNKYASSEKEIQAQKRELLS
B11: MreB (protein, UniProt Q8Y6H3 1-330)
chain: MFGTTTIGIDLGTANILVYSKEKGIILNEPSVVALNTNDGTVLAIGQEAKEMIGKTPTSISAVRPMKDGVIADFDLTSGLLREIMRRISVSGVRKPNVVVCTPTGATSVERRAISDAVRSTGARSVVLIEEPVAAAIGADLPVAEPVANVIVDIGGGTSEIAIISYGGVVSSTSIRTGGDHMDEEIIQYIRKNYNLLIGQTTAERIKMELGYAPIEHVTQTADIRGRDLLTGLPKTIQVSSTEIQSALAETLQRILEAIRNTLELCPPELSGDIVDRGIILSGGGSLLQGFRDWLVEEIDVPVHMAPSPLESVAIGTGRSLVFADKLAKN
B12: FhuC (protein, UniProt Q8Y5U5 1-274)
chain: MKDLHTDNLQISYDKRIIVDGLDIAIPANKITALVGANGSGKSTILKTMSRLMKPSKGAVYLDGKTIHSQPTRDVAKQLAILPQNPSAPDGLTVFELISYGRSPHQSSFKSITAKDREIIFWSLRVTNLTEFADRPIDSLSGGQRQRAWIAMALAQETDVLFLDEPTTFLDMTHQLDVLNLLKQLNQSENRTIVMVVHDLNHASRYAHHMIAIKEGKVIAEGTPTSVMTEQTLEDVFNIKADILIDPRSGVPLCLPYETCNGCEIVKELDSIAK

The first assay deals with ClpP2, endogenous in L. monocytogenes (L. monocytogenes EGD-e (endogenous)). As to the kind of experiment: affinity purification with mass spectrometry.
In the case of B1, the binding entry was “binds”.
On the same count and under the same terms, next, B2: “binds”.
Regarding B3, the binding entry was “binds”.
On the same count and under the same terms, next, B4: “binds”; B5: “binds”.
On to B6, for which the binding result is listed as “binds”.
Still for that read-out and setting: in the case of B7 it was “binds”.
On to B8, for which the binding entry is given as “binds”.
On the same count and under the same terms, next, B9: “binds”.
Still for that read-out and setting: next, B10: “binds”; B11: “binds”.

The target in a further assay is ClpP1, endogenous in L. monocytogenes (L. monocytogenes EGD-e (endogenous)). Kind of assay: affinity purification with mass spectrometry.
With B12, the binding result is “binds”.
